Laboratory results as given in PubChem BioAssay AID342 (DTP/NCI, 2004).
The list is a part of this screen's results and no random one: it is rich in T/C values a quarter to a half above the control, in often repeated tests (any T/C) and in doses without a T/C. Further doses and runs are listed elsewhere. T/C is the treated group as % of the vehicle group. Schedule codes are those of the source, read here as Q, the interval in days (D) or hours (H), X, the number of doses. Some schedule codes hold Z or #, which are not explained here. Some doses have a count of surviving animals in place of a T/C: the source holds a T/C of zero for them, seemingly a mark for toxic or unscored doses. Counts of survivors are from the toxicity check (mostly the fifth day) where no day follows; animals may have died later. Some entries hold several experiments; their values stand side by side, smallest first. Some structures stand for samples that the source files as different forms (salt, stereo form or complex); doses refer to the form tested.

Tested on: Swiss mice, Sarcoma 180 sc, mean tumor weight T/C
Assay: NCI In Vivo Anticancer Drug Screen. Data for tumor model Sarcoma 180 (subcutaneous) in Swiss mice
Settings: T/C endpoint: mean tumor weight, higher T/C = larger tumour; for T/C: evaluated on day 8
Outline: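 Antitumor activity is assessed in mice with transplantable tumors. Treated (T) and vehicle control (C) groups are compared on survival or tumor size.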

[1] = dose: 500.0 mg/kg/injection, schedule: Q01DX007 (ip), vehicle: saline
[2] = dose: 250.0 mg/kg/injection, schedule: Q01DX007 (ip), vehicle: saline
[3] = dose: 125.0 mg/kg/injection, schedule: Q01DX007 (ip), vehicle: carboxymethylcellulose (CMC)

For `O=[N+]([O-])c1ccc2c(N=Nc3c(O)ccc4ccccc34)c(O)cc(S(=O)(=O)O)c2c1`, the survivor count (dose: 330.0 mg/kg/injection, schedule: Q01DX007 (ip), vehicle: saline) was 3 of 6, the survivor count [1] was 0 of 6 and 3 of 6 and the survivor count (dose: 750.0 mg/kg/injection, schedule: Q01DX007 (ip), vehicle: saline) was 0 of 6.
In the case of `C[N+]1(CCC[N+]2(C)CC3C4C=CC(CC4)C3C2)CCOCC1` (stereo unspecified), the survivor count (dose: 125.0 mg/kg/injection, schedule: Q01DX007 (ip), vehicle: saline) is reported as 2 of 6, the survivor count [2] is reported as 0 of 6 and the survivor count [1] is reported as 0 of 6. For the same molecule, the survivor count (dose: 1000.0 mg/kg/injection, schedule: Q01DX007 (ip), vehicle: saline) was 0 of 6.
`O=C(O)C(O)C(F)(F)F` (stereo unspecified) was tested, and the T/C (dose: 15.5 mg/kg/injection, schedule: Q#A X014 (ip), vehicle: saline) was 128 % of control, the survivor count (dose: 62.5 mg/kg/injection, schedule: Q#A X014 (ip), vehicle: saline) was 3 of 6 and the survivor count (dose: 125.0 mg/kg/injection, schedule: Q#A X014 (ip), vehicle: saline) was 2 of 6.
For `CC(C)CC(C)(C[N+](=O)[O-])C[N+](=O)[O-]`, the survivor count (dose: 20.0 mg/kg/injection, schedule: Q01DX007 (ip), vehicle: saline) was 0 of 6.
With `CS(=O)(=O)OCCCCOS(C)(=O)=O` the survivor count (dose: 50.0 mg/kg/injection, schedule: Q#A X014 (ip), vehicle: carboxymethylcellulose (CMC)) was 3 of 6 and the survivor count (dose: 79.0 mg/kg/injection, schedule: Q01DX007 (ip), vehicle: carboxymethylcellulose (CMC)) was 2 of 10.
For `CN(C)[C@@H]1C(=O)C(C(=O)NCNC(CO)(CO)CO)=C(O)[C@@]2(O)C(=O)C3=C(O)c4c(O)cccc4[C@@](C)(O)[C@H]3C[C@@H]12`, the survivor count (dose: 187.5 mg/kg/injection, schedule: Q#A X014 (ip), vehicle: saline) was 2 of 6, the survivor count (dose: 320.0 mg/kg/injection, schedule: Q01DX007 (ip), vehicle: saline) was 2 of 6 and the survivor count (dose: 400.0 mg/kg/injection, schedule: Q01DX007 (ip), vehicle: other) was 0 of 6. For the same molecule, the survivor count (dose: 420.0 mg/kg/injection, schedule: Q01DX007 (ip), vehicle: other) was 2 of 6, the survivor count (dose: 480.0 mg/kg/injection, schedule: Q01DX007 (ip), vehicle: other) was 0 of 6 and the survivor count (dose: 600.0 mg/kg/injection, schedule: Q01DX007 (ip), vehicle: other) was 0 of 6.
For `CCOC(N)=O`, the T/C (dose: 150.0 mg/kg/injection, schedule: Q#A X014 (ip), vehicle: carboxymethylcellulose (CMC)) was 127 % of control and the survivor count (dose: 790.0 mg/kg/injection, schedule: Q01DX007 (ip), vehicle: carboxymethylcellulose (CMC)) was 4 of 10.
In the case of `CC1C/C=C2\CSC(NC(=O)/C3=C\N(C/C=C/C=C/C(O)CC(O)CC(=O)N3)C2=O)C(=O)O1` (stereo unspecified), the T/C (dose: 75.0 mg/kg/injection, schedule: Q01DX007 (ip), vehicle: carboxymethylcellulose (CMC)) is reported as 140 % of control.
`O=C(N[C@H](CO)[C@H](O)c1ccc([N+](=O)[O-])cc1)C(Cl)Cl` was tested, and the T/C [3] was 139 % of control, the survivor count (dose: 750.0 mg/kg/injection, schedule: Q#A X014 (ip), vehicle: carboxymethylcellulose (CMC)) was 3 of 6 and the survivor count (dose: 1000.0 mg/kg/injection, schedule: Q01DX007 (ip), vehicle: carboxymethylcellulose (CMC)) was 2 of 10.
With `Cn1c2c(c3ccccc31)CCN1C[C@@H]3CCCC[C@H]3C[C@@H]21` the survivor count (dose: 75.0 mg/kg/injection, schedule: Q01DX007 (ip), vehicle: saline) was 0 of 6, the survivor count (dose: 110.0 mg/kg/injection, schedule: Q01DX007 (ip), vehicle: saline) was 1 of 6 and the survivor count (dose: 165.0 mg/kg/injection, schedule: Q01DX007 (ip), vehicle: saline) was 0 of 6. The survivor count [2] was 0 of 6.
For `O=C(CBr)c1ccc(Br)cc1`, the survivor count (dose: 30.0 mg/kg/injection, schedule: Q01DX007 (ip), vehicle: other) was 2 of 6.
For `Clc1ccc2c(Cl)ncnc2c1`, the survivor count (dose: 75.0 mg/kg/injection, schedule: Q#A X014 (ip), vehicle: methylcellulose (MC)) was 1 of 6 and 2 of 6.
`O=[N+]([O-])c1ccc(/C=N\Nc2ccc([N+](=O)[O-])cn2)cc1` was tested, and the survivor count (dose: 18.0 mg/kg/injection, schedule: Q#A X014 (ip), vehicle: methylcellulose (MC)) was 2 of 6 and the survivor count (dose: 27.0 mg/kg/injection, schedule: Q#A X014 (ip), vehicle: methylcellulose (MC)) was 1 of 6.
`OCC1OC(n2cnc3c(Cl)ncnc32)C(O)C1O` (stereo unspecified) was tested, and the T/C (dose: 600.0 mg/kg/injection, schedule: Q01DX007 (ip), vehicle: carboxymethylcellulose (CMC)) was 129 % of control.
In the case of `CCCCCCCCCCC(O)CN1CCN(c2ccc(C)cc2)CC1` (stereo unspecified), the survivor count (dose: 375.0 mg/kg/injection, schedule: Q01DX007 (ip), vehicle: olive oil, sesame oil, peanut oil) is reported as 3 of 6.
For `Nc1nc(SN=Nc2ccc(S(=O)(=O)O)cc2)c2[nH]cnc2n1`, the survivor count (dose: 31.0 mg/kg/injection, schedule: Q01DX007 (ip), vehicle: other) was 3 of 6 and the survivor count (dose: 46.0 mg/kg/injection, schedule: Q01DX007 (ip), vehicle: other) was 2 of 6.
`C=CCNc1ccc(C)cc1` was tested, and the survivor count (dose: 105.0 mg/kg/injection, schedule: Q01DX007 (ip), vehicle: carboxymethylcellulose (CMC)) was 2 of 7 and the survivor count (dose: 236.0 mg/kg/injection, schedule: Q01DX007 (ip), vehicle: carboxymethylcellulose (CMC)) was 1 of 6.
`COc1ccc(C(=O)/C(Br)=C/C(=O)O)cc1` was tested, and the survivor count (dose: 50.0 mg/kg/injection, schedule: Q01DX007 (ip), vehicle: water) was 5 of 8.
For `CN1CCc2cc3c(cc2C(=O)Cc2ccc4c(c2C1)OCO4)OCO3`, the survivor count [3] was 1 of 6, the survivor count (dose: 250.0 mg/kg/injection, schedule: Q01DX007 (ip), vehicle: carboxymethylcellulose (CMC)) was 0 of 6 and the survivor count (dose: 500.0 mg/kg/injection, schedule: Q01DX007 (ip), vehicle: carboxymethylcellulose (CMC)) was 0 of 6.
For `Nc1nc(=S)c2ncn(C3CCCO3)c2[nH]1` (stereo unspecified), the survivor count (dose: 180.0 mg/kg/injection, schedule: Q01DX007 (ip), vehicle: carboxymethylcellulose (CMC)) was 0 of 6.
In the case of `Cc1ncc(CO)c(CNC(=O)N(C)N=O)c1O`, the survivor count [3] is reported as 1 of 6.
In the case of `Nc1cc(SCc2ccccc2)nc(N)n1`, the survivor count (dose: 150.0 mg/kg/injection, schedule: Q#A X014 (ip), vehicle: methylcellulose (MC)) is reported as 3 of 6.
For `CC/C(=C(/CC)c1ccc(O)cc1)c1ccc(O)cc1`, the survivor count (dose: 70.8 mg/kg/injection, schedule: Q01DX007 (sc), vehicle: steroid suspending solution) was 4 of 10, the survivor count (dose: 88.5 mg/kg/injection, schedule: Q01DX007 (sc), vehicle: steroid suspending solution) was 3 of 10 and the survivor count (dose: 118.0 mg/kg/injection, schedule: Q01DX007 (sc), vehicle: steroid suspending solution) was 4 of 10. For the same molecule, the survivor count (dose: 177.0 mg/kg/injection, schedule: Q01DX007 (sc), vehicle: steroid suspending solution) was 5 of 10 and the survivor count (dose: 192.0 mg/kg/injection, schedule: Q01DX007 (sc), vehicle: steroid suspending solution) was 3 of 10.
In the case of `CC1OC2CC(=O)OC2C2=C1C(=O)c1c(O)c3c(c(O)c1C2=O)C1CC(O)C3(O)C(C)O1` (stereo unspecified), the T/C (dose: 0.05 mg/kg/injection, schedule: Q01DX007 (ip), vehicle: saline) is reported as 126 % of control, the T/C (dose: 0.2 mg/kg/injection, schedule: Q01DX007 (ip), vehicle: saline) is reported as 127 % of control and the survivor count (dose: 48.0 mg/kg/injection, schedule: Q01DX007 (ip), vehicle: saline) is reported as 0 of 6. The survivor count (dose: 96.0 mg/kg/injection, schedule: Q01DX007 (ip), vehicle: saline) was 0 of 6.
`Clc1ccc(C[P+](c2ccccc2)(c2ccccc2)c2ccccc2)cc1Cl` was tested, and the survivor count (dose: 8.0 mg/kg/injection, schedule: Q01DX007 (ip), vehicle: carboxymethylcellulose (CMC)) was 2 of 6 and the survivor count (dose: 12.0 mg/kg/injection, schedule: Q01DX007 (ip), vehicle: carboxymethylcellulose (CMC)) was 1 of 6.
`CNC(C)C(O)c1ccccc1` (stereo unspecified) was tested, and the survivor count (dose: 300.0 mg/kg/injection, schedule: Q01DX007 (ip), vehicle: saline) was 2 of 6 and the survivor count (dose: 450.0 mg/kg/injection, schedule: Q01DX007 (ip), vehicle: saline) was 0 of 6.
With `CC(=O)c1cccc(NC2C(N)C(NC(=O)N(C)C)(C(C)O)C(C)(O)C2(O)COC(=O)c2c(C)cccc2O)c1` (stereo unspecified) the survivor count (dose: 4.0 mg/kg/injection, schedule: Q01DX007 (ip), vehicle: saline) was 3 of 8.
In the case of `Nc1nc(=S)c2[nH]cnc2[nH]1`, the survivor count (dose: 4.5 mg/kg/injection, schedule: Q01DX007 (ip), vehicle: carboxymethylcellulose (CMC)) is reported as 1 of 7.
